For two substances, binding results are on record in publication doi:10.1101/2022.08.24.505075.

Chains of the proteins cited; added tags and fusions are not shown.
UniProt Q969H0: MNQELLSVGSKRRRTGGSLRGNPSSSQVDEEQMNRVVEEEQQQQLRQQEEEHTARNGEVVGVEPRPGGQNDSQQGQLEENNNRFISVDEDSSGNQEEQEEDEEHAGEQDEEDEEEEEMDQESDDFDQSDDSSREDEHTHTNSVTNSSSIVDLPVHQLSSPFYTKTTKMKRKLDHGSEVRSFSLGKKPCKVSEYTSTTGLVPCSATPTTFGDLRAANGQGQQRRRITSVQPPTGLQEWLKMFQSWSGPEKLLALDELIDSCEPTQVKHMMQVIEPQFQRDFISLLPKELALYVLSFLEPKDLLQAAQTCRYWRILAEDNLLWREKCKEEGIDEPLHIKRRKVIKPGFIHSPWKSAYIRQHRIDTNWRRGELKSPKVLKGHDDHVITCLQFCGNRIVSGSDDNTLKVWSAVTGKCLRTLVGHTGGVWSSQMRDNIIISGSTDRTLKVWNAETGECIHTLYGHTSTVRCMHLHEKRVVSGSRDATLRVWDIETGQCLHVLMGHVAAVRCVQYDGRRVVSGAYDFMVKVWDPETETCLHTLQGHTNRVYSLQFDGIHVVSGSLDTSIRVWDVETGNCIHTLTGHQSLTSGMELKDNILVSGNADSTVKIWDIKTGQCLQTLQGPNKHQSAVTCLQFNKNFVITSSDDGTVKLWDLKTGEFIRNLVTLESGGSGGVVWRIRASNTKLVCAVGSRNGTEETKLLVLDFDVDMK
UniProt Q03164: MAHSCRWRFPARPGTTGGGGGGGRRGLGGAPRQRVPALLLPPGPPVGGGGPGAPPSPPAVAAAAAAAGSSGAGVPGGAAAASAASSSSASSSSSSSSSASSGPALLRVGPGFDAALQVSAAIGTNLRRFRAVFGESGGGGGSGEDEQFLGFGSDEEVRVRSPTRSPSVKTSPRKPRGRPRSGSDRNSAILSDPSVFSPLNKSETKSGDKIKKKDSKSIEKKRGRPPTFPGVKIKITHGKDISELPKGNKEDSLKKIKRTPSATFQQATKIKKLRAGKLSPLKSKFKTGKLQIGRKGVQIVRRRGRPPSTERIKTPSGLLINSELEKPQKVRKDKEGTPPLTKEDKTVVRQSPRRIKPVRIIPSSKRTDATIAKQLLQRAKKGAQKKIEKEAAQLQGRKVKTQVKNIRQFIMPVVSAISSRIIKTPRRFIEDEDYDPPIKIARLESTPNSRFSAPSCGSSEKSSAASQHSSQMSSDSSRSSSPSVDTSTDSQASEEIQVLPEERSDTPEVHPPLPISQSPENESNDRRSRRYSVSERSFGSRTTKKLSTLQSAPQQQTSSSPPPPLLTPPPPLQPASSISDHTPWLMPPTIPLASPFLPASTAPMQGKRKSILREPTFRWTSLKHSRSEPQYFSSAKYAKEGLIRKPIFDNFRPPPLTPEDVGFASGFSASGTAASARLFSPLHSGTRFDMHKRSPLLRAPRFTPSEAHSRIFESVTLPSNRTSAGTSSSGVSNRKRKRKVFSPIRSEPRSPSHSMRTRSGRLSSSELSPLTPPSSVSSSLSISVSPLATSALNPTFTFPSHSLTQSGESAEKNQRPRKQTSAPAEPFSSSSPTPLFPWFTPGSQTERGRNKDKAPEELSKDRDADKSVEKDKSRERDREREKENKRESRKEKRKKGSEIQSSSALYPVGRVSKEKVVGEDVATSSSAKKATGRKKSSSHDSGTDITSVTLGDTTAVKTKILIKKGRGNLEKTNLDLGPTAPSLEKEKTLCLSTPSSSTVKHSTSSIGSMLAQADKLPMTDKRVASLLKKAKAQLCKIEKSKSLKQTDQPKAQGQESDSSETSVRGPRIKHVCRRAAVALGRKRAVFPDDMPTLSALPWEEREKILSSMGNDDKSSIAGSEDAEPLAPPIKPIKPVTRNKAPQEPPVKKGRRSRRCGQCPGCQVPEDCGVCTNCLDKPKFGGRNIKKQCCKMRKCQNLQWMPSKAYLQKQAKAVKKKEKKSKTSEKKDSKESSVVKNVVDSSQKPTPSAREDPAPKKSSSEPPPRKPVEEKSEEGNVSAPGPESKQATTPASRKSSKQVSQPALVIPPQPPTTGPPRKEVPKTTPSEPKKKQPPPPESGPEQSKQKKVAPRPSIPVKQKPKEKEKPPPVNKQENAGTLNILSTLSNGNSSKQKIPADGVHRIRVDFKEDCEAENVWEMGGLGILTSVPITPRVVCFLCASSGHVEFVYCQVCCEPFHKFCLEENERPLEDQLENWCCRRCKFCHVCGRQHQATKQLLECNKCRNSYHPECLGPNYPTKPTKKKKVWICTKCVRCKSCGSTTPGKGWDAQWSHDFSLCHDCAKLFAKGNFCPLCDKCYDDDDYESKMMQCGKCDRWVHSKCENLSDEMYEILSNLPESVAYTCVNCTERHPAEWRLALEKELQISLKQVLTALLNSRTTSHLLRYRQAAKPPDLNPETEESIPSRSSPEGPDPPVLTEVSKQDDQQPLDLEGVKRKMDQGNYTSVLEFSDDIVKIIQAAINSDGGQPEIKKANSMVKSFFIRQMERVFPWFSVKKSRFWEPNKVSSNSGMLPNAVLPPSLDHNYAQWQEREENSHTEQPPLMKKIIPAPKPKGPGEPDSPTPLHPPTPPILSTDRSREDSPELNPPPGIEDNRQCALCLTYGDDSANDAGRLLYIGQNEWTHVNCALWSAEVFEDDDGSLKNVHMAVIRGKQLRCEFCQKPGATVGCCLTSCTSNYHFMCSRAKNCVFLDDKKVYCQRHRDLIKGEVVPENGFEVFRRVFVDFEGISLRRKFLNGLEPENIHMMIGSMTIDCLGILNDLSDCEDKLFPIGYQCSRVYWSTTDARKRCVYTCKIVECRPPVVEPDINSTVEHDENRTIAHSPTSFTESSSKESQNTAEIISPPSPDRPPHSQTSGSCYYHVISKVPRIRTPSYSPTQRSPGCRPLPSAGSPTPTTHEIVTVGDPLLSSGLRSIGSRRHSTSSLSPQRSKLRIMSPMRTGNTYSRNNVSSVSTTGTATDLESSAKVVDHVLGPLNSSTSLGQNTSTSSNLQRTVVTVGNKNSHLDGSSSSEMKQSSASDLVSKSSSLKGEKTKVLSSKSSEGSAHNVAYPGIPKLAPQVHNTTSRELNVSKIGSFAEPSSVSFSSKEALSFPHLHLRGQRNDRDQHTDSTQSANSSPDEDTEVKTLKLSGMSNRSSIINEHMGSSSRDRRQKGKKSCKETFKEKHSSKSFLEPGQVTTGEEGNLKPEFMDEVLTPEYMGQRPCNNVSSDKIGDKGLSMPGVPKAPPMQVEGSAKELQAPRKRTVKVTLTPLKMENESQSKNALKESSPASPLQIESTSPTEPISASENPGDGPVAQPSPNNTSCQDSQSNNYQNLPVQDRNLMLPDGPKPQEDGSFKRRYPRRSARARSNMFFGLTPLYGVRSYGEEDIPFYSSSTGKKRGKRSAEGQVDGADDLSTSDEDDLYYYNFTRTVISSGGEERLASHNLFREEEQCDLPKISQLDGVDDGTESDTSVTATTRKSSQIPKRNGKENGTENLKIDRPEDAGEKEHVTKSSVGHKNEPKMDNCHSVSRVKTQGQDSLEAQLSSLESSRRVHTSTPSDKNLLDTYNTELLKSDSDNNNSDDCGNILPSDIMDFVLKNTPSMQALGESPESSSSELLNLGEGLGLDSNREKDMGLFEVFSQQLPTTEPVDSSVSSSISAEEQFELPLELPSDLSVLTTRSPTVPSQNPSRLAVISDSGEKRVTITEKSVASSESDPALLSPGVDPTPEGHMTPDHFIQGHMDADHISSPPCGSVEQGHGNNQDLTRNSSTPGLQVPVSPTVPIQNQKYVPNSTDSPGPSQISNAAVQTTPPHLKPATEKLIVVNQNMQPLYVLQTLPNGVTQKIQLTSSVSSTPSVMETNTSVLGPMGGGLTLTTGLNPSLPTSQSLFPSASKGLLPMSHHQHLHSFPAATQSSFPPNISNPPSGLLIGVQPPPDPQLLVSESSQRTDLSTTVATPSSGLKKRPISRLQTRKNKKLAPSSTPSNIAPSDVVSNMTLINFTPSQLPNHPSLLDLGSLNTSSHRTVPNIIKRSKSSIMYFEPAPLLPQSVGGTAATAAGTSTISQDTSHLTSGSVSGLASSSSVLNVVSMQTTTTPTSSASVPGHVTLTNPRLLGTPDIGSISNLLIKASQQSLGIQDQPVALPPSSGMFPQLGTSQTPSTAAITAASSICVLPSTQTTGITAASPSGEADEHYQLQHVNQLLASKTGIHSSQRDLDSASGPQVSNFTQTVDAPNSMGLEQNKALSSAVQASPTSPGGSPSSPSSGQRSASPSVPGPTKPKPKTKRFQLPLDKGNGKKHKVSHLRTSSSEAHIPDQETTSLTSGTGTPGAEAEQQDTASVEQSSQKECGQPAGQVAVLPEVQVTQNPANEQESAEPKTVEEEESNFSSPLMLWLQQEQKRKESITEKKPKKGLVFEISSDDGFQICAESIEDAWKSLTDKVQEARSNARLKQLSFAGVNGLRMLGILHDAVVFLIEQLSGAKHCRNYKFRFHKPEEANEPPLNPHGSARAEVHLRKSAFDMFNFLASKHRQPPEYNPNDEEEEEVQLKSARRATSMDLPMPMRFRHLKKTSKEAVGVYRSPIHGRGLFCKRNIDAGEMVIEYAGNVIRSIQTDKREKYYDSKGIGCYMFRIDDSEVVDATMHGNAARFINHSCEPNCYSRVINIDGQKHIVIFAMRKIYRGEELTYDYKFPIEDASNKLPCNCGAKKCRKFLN
UniProt O15047: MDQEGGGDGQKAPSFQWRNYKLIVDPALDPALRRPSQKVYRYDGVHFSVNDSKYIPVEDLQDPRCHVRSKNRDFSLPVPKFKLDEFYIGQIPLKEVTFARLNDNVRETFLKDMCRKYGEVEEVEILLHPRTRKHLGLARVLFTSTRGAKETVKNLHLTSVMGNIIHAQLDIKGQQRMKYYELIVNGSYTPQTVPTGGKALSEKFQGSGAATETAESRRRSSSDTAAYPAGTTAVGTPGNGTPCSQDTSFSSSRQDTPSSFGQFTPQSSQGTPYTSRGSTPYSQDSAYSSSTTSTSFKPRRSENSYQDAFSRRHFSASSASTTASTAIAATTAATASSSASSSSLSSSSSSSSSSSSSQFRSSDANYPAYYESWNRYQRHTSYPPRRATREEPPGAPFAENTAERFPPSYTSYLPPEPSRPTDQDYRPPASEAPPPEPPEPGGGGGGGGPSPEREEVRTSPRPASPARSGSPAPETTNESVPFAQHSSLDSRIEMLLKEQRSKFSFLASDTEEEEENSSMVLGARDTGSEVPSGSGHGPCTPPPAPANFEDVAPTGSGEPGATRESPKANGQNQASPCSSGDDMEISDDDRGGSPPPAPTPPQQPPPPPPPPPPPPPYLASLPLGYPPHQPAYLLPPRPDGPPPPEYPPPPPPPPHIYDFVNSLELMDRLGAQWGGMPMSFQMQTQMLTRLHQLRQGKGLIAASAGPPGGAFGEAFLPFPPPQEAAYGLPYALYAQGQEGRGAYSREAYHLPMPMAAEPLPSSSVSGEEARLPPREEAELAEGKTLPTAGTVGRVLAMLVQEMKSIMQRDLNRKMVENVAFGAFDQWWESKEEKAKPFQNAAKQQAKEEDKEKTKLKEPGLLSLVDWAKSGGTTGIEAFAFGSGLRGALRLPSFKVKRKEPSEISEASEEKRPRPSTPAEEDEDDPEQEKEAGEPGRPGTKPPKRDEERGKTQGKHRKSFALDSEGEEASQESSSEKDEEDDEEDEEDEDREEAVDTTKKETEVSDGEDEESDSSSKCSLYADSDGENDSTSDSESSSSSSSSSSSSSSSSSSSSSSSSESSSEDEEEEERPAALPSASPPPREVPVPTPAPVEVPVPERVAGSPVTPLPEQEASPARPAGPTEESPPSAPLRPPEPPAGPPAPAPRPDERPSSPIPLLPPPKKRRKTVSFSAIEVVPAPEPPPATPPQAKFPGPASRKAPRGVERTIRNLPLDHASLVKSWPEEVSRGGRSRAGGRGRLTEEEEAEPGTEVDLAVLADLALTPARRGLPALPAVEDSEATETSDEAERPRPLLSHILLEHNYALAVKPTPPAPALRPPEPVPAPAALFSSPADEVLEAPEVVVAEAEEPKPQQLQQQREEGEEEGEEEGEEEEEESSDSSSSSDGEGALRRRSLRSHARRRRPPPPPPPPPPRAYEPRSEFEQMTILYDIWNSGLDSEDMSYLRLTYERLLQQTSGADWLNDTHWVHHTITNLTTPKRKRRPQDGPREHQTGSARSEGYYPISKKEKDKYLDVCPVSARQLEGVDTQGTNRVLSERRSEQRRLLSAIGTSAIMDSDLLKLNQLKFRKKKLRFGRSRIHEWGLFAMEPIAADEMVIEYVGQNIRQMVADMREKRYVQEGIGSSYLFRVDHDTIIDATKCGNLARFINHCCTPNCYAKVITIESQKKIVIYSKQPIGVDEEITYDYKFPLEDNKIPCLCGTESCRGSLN

No constants are given. Whether binding was seen depends on the method and setting. In cells and extracts the contact can be indirect.

For the assay, the target named is Flag-tagged FBXW7α (human) (UniProt Q969H0). The assay can be described thus: co-IP.

For the substance MLL1 (from UniProt Q03164 1-3969), the binding entry is given as “no binding”. In the case of SetD1A (from UniProt O15047 1-1707) it was “no binding”.
